For 4 substances, binding results are on record in article PMC11979000.

By UniProt entry, the sequences of proteins in these tests, tags left out.
UniProt Q02952: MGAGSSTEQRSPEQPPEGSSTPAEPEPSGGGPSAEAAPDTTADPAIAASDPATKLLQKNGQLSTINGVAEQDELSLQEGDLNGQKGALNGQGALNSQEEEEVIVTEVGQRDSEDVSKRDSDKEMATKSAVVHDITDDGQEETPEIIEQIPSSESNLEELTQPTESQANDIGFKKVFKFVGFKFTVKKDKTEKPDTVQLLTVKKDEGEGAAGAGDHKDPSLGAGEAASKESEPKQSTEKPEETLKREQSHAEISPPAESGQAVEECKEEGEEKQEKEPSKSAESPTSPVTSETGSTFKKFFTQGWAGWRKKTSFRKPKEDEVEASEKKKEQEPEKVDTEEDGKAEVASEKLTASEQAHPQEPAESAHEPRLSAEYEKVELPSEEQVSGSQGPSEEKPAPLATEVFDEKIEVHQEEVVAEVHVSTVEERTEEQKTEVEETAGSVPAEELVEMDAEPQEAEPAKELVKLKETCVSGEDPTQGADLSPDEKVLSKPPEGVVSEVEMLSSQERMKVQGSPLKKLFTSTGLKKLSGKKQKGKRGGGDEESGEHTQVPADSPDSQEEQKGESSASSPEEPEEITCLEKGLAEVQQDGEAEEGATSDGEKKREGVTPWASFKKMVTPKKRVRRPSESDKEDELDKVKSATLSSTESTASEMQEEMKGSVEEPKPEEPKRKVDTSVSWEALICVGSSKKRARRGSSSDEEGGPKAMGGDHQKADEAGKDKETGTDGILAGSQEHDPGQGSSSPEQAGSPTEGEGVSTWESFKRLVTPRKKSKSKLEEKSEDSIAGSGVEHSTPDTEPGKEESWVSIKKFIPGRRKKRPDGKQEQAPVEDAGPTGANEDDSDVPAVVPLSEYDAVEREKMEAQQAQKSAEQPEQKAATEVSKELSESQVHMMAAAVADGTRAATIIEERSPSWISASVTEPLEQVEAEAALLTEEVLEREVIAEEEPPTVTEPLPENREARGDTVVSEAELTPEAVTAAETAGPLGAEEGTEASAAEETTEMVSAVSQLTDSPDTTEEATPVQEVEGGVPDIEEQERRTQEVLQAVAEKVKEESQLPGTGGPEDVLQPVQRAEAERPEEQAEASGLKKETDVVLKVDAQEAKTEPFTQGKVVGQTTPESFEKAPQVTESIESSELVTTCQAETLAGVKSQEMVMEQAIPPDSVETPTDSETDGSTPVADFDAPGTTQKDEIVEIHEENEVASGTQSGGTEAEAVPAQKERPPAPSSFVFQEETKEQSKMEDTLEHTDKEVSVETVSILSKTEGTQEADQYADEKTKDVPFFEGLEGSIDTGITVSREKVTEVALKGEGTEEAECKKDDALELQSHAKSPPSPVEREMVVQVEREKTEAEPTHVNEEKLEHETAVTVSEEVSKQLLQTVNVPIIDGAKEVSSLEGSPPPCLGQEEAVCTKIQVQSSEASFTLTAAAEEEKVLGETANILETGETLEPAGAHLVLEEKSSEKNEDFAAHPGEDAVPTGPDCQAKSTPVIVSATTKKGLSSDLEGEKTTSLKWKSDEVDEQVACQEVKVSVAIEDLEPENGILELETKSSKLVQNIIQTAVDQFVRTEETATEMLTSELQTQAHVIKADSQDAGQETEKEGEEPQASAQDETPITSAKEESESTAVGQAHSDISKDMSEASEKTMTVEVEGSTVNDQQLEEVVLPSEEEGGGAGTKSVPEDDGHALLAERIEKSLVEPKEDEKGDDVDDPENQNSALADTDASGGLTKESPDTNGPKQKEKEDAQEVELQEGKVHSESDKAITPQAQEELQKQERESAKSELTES
UniProt Q9WTQ5: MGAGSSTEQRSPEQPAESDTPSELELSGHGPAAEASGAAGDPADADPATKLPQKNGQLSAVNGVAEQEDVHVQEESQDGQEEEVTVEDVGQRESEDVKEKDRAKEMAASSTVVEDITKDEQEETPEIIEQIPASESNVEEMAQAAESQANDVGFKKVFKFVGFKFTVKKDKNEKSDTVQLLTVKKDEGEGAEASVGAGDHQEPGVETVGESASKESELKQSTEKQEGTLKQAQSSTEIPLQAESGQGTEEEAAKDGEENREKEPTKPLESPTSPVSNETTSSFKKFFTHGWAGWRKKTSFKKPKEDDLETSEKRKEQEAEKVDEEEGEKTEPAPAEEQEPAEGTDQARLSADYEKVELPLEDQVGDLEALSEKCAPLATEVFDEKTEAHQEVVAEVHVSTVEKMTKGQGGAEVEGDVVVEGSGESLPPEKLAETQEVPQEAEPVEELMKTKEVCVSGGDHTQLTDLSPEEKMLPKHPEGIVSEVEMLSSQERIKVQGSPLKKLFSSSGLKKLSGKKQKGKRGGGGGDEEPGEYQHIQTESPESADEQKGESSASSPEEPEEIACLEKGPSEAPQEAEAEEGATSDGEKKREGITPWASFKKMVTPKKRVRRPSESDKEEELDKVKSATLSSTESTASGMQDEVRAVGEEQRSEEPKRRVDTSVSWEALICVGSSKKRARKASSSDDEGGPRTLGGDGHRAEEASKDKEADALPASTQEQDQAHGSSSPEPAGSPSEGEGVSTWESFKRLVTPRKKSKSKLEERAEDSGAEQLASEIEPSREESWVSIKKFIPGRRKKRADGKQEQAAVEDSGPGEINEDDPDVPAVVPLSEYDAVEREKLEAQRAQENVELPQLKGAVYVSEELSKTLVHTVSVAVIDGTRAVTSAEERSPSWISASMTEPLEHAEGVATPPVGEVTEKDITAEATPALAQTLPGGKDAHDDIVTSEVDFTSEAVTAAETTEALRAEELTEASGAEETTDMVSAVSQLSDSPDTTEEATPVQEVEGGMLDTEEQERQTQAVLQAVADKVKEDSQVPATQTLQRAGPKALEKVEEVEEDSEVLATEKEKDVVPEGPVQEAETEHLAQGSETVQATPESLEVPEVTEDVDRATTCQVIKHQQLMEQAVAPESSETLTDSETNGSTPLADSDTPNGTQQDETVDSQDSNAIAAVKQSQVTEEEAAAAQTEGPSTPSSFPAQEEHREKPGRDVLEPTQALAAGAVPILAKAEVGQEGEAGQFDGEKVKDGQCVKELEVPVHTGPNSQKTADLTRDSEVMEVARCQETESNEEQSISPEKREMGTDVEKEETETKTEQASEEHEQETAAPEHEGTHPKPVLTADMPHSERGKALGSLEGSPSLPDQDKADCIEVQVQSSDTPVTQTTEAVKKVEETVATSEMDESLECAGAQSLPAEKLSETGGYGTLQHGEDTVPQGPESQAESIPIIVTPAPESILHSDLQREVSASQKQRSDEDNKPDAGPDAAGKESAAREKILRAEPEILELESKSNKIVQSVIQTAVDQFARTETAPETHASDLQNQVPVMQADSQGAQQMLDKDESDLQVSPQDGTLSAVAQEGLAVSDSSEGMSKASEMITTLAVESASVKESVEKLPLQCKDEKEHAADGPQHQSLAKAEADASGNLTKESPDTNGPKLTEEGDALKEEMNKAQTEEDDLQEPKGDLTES
UniProt P10644: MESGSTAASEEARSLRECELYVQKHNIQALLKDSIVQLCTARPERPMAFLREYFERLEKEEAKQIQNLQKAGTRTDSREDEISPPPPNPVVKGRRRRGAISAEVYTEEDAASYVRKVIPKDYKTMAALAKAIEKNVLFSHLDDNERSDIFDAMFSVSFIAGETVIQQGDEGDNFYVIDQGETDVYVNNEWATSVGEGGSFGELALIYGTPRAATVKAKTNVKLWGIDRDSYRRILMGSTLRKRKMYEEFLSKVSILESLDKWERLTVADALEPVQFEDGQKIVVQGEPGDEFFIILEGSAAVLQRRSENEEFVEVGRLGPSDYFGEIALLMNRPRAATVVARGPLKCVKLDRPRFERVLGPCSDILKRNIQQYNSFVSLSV
UniProt P13861: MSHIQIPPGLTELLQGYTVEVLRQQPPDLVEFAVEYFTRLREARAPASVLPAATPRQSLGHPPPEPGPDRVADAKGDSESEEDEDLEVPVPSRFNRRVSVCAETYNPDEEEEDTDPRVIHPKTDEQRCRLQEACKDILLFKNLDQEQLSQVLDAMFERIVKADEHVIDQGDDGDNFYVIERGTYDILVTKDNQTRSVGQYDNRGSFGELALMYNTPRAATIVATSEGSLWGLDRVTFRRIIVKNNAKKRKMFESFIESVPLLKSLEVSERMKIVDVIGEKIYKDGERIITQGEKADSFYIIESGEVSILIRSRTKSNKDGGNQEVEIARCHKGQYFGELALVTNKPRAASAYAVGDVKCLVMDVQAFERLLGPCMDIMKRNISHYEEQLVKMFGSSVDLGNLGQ
UniProt P12367: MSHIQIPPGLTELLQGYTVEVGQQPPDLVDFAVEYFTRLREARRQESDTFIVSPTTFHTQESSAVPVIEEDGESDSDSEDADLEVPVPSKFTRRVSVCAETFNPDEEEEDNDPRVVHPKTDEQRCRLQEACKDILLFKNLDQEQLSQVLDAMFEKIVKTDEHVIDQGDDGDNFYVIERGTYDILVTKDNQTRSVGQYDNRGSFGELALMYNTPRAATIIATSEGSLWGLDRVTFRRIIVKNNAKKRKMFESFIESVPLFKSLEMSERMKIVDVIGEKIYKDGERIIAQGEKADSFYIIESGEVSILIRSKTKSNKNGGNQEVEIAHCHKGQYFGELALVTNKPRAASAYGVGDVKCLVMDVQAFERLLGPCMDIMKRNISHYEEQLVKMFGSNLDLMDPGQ
UniProt O00506: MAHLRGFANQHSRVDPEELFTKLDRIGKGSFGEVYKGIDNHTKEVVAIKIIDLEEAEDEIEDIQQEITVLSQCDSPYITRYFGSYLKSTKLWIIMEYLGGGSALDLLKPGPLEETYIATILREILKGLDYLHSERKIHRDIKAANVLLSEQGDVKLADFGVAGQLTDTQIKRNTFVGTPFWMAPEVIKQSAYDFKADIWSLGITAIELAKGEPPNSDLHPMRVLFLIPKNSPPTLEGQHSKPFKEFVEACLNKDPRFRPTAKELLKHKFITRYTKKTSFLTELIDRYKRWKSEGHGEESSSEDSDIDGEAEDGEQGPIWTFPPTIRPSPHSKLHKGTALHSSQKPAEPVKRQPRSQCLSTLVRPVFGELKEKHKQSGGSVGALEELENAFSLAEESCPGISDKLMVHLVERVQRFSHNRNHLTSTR

Assay [1] concerns the target A-kinase anchoring protein 12 (AKAP12), human (human (endogenous in primary human hepatocytes and human liver tissue)) (UniProt Q02952). The assay is described as follows: co-IP; total protein (300-500 ug) of primary human hepatocytes in IP lysis buffer, pre-cleared, precipitated with 2 ug AKAP12 antibody, blotted for PKAR2A or PKAR1A; cells control or 100 mM ethanol 24 h; WT (Cas9 alone) or PKA-BD CRISPR cells.

For assay [2] the target is unchanged. The assay is described as follows: proximity ligation; cultured primary human hepatocytes, control or ethanol; PLA-probe linked secondary rabbit or mouse IgG; also with STK25 siRNA or AKAP12 vector.
For assay [3] the target is unchanged. The assay is described as follows: proximity ligation; paraffin-embedded human liver steatosis tissue array (6 normal, 19 steatosis with alcohol, 5 without); antibodies conjugated to PLA plus or minus probes; AKAP12-PKAR2A red, AKAP12-PKAR1A green.
Assay [4] deals with A-kinase anchoring protein 12 (AKAP12), mouse (mouse (endogenous in mouse hepatocytes and liver)) (UniProt Q9WTQ5). The assay is described as follows: co-IP; total liver protein of pair-fed or ethanol-fed mice in IP lysis buffer, precipitated with AKAP12 antibody, blotted for PKAR2.
The target in assay [5] is PKA regulatory subunit RI-alpha (PKAR1A), human (human (endogenous in primary human hepatocytes and human liver tissue)) (UniProt P10644). Description: proximity ligation; cultured primary human hepatocytes, control or ethanol; PLA-probe linked secondary rabbit or mouse IgG; also with STK25 siRNA or AKAP12 vector.

These are yes or no findings as the source states them, for the method shown. In cells and extracts the contact can be indirect. Some binding calls cover weakened binding; strength is not graded here.

Consider “PKA regulatory subunit RI-alpha (PKAR1A), human (from UniProt P10644 1-381)”, for which the binding result in assay [1], in assay [2] and in assay [3] was “binds” in each case.
In the case of “PKA regulatory subunit RII-alpha (PKAR2A), human (from UniProt P13861 1-404)”, the binding result in assay [1] and in assay [3] was “binds” throughout.
As to “Protein kinase type II-alpha (PKA regulatory subunit RII-alpha), mouse (from UniProt P12367 1-401)”, the binding entry in assay [4] is “binds”.
On to “serine/threonine-protein kinase 25 (STK25), human (from UniProt O00506 1-426) (enzyme)”, for which, in assay [5], the binding result is “binds”.
